Consider 29 compounds from the supplement of paper PMC4604168 (melanoma cell lines).

SMILES strings stand for the structures. The list shows a part of the results. Single values are uncertain, as repeats are few or missing.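 Imaging used 1,536-well plates; nuclei positive for cleaved PARP by antibody were divided by total DNA-stained nuclei to yield the apoptosis fraction. Doses for screening kept most cells viable, and cell lines differ markedly in resting and induced cleaved-PARP levels.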

The subject of one test is COLO792. Nature of the test: cleaved PARP positive nuclei fraction relative to DMSO control; melanoma cells; higher = more apoptosis. The settings on record: library dose: low library concentration; 72 h.
Turning to `C=CCn1c(=O)c2cnc(Nc3ccc(N4CCN(C)CC4)cc3)nc2n1-c1cccc(C(C)(C)O)n1` + C/C(O)=C(\C#N)C(=O)Nc1cc(Br)ccc1Br [LFM-A13] (first compound 0.02 µM, partner dose 2 µM), the “cleaved PARP positive nuclei fraction” value is 98.5%. Same read-out and setting: to `Cc1cc(SCc2sc(-c3ccc(C(F)(F)F)c(F)c3)nc2C)ccc1OCC(=O)O` + COc1cc2ncnc(Nc3ccc(Oc4ccccc4)cc3)c2cc1OC [SrcI1] (first compound 2 µM, partner dose 2 µM) belongs 105%; to `Cn1cc(C2=C(c3cn(C4CCN(Cc5ccccn5)CC4)c4ccccc34)C(=O)NC2=O)c2ccccc21` [Enzastaurin] + CC(=O)O[C@@]12CO[C@@H]1C[C@H](O)[C@@]1(C)C(=O)[C@H](O)C3=C(C)[C@@H](OC(=O)[C@H](O)[C@@H](NC(=O)OC(C)(C)C)c4ccccc4)C[C@@](O)([C@@H](OC(=O)c4ccccc4)[C@H]21)C3(C)C [Docetaxel] (first compound 0.8 µM, partner dose 0.0001 µM), 274%; to `O=C(/C=C/c1cccnc1)NCCCCC1CCN(C(=O)c2ccccc2)CC1` + C[As](C)SC[C@H](NC(=O)CC[C@H](N)C(=O)O)C(=O)NCC(=O)O [Darinaparsin] (first compound 0.01 µM, partner dose 0.4 µM), 642%. Still for that read-out and setting: to `C#Cc1cccc(Nc2ncnc3cc(OCCOC)c(OCCOC)cc23)c1` [erlotinib] + Cc1cc(SCc2sc(-c3ccc(C(F)(F)F)c(F)c3)nc2C)ccc1OCC(=O)O [GW0742] (first compound 0.8 µM, partner dose 2 µM) belongs 123%; to `C[As](C)SC[C@H](NC(=O)CC[C@H](N)C(=O)O)C(=O)NCC(=O)O` [Darinaparsin] + COc1ccc(-c2ccc3c(N4CCOCC4)nc(N4C[C@@H](C)O[C@@H](C)C4)nc3n2)cc1CO [KU0063794] (first compound 0.4 µM, partner dose 0.02 µM), 116%; to `Cn1cc(C2=C(c3cn(C4CCN(Cc5ccccn5)CC4)c4ccccc34)C(=O)NC2=O)c2ccccc21` [Enzastaurin] + C[C@@H](Oc1cc(-c2cnn(C3CCNCC3)c2)cnc1N)c1c(Cl)ccc(F)c1Cl [Crizotinib] (first compound 0.8 µM, partner dose 0.2 µM), 26.6%. Still for that read-out and setting: to `COc1ccc(C2=N[C@@H](c3ccc(Cl)cc3)[C@@H](c3ccc(Cl)cc3)N2C(=O)N2CCNC(=O)C2)c(OC(C)C)c1` [Nutlin-3] + O=C(Oc1ccc([N+](=O)[O-])cc1)N1CCC(C(O)(c2ccc3c(c2)OCO3)c2ccc3c(c2)OCO3)CC1 [JZL184] (first compound 0.1 µM, partner dose 1 µM) belongs 115%.

In another test the test system is COLO800. The test is described as above. The following applies: library dose: low library concentration; 72 h.
For `C[C@@H]1CCN(C(=O)CC#N)C[C@@H]1N(C)c1ncnc2[nH]ccc12` + O=C(Oc1ccc([N+](=O)[O-])cc1)N1CCC(C(O)(c2ccc3c(c2)OCO3)c2ccc3c(c2)OCO3)CC1 [JZL184] (first compound 1 µM, partner dose 1 µM), the “cleaved PARP positive nuclei fraction” value was found to be 73.7%. Still for that read-out and setting: the same measure for `C[As](C)SC[C@H](NC(=O)CC[C@H](N)C(=O)O)C(=O)NCC(=O)O` [Darinaparsin] + C/C(O)=C(\C#N)C(=O)Nc1cc(Br)ccc1Br [LFM-A13] (first compound 0.4 µM, partner dose 2 µM): 179%.

With `Cn1c(=O)n(-c2ccc(C(C)(C)C#N)cc2)c2c3cc(-c4cnc5ccccc5c4)ccc3ncc21` + N.N.[Cl][Pt][Cl] [cisplatin] (first compound 0.004 µM, partner dose 1.6 µM), the “cleaved PARP positive nuclei fraction” value came out at 109%. Turning to `CC(=O)O[C@@]12CO[C@@H]1C[C@H](O)[C@@]1(C)C(=O)[C@H](O)C3=C(C)[C@@H](OC(=O)[C@H](O)[C@@H](NC(=O)OC(C)(C)C)c4ccccc4)C[C@@](O)([C@@H](OC(=O)c4ccccc4)[C@H]21)C3(C)C` [Docetaxel] + C[As](C)SC[C@H](NC(=O)CC[C@H](N)C(=O)O)C(=O)NCC(=O)O [Darinaparsin] (first compound 0.0001 µM, partner dose 0.4 µM), the “cleaved PARP positive nuclei fraction” value was 284%. The same measure, in the same setting: to `C[C@]12O[C@H](C[C@]1(O)CO)n1c3ccccc3c3c4c(c5c6ccccc6n2c5c31)CNC4=O` [Lestaurtinib] + Cn1c(Nc2ccc(C(F)(F)F)cc2)nc2cc(Oc3ccnc(-c4ncc(C(F)(F)F)[nH]4)c3)ccc21 [CHIR265] (first compound 0.004 µM, partner dose 0.08 µM) belongs 93.4%; to `Cn1cc(C2=C(c3cn(C4CCN(Cc5ccccn5)CC4)c4ccccc34)C(=O)NC2=O)c2ccccc21` [Enzastaurin] + Cc1cc(Nc2cc(N3CCN(C)CC3)nc(/C=C/c3ccccc3)n2)n[nH]1 [ENMD2076] (first compound 0.8 µM, partner dose 0.04 µM), 114%. Still for that read-out and setting: the same measure for `Cc1cc(Nc2cc(N3CCN(C)CC3)nc(Sc3ccc(NC(=O)C4CC4)cc3)n2)n[nH]1` [Tozasertib] + N.N.[Cl][Pt][Cl] [cisplatin] (first compound 0.006 µM, partner dose 1.6 µM): 90.6%; for `C[C@]12O[C@H](C[C@]1(O)CO)n1c3ccccc3c3c4c(c5c6ccccc6n2c5c31)CNC4=O` [Lestaurtinib] + C[C@@H](Oc1cc(-c2cnn(C3CCNCC3)c2)cnc1N)c1c(Cl)ccc(F)c1Cl [Crizotinib] (first compound 0.004 µM, partner dose 0.2 µM): 96.3%; for `N.N.[Cl][Pt][Cl]` [cisplatin] + Clc1ccc(Nc2nnc(Cc3ccncc3)c3ccccc23)cc1 [vatalanib] (first compound 1.6 µM, partner dose 2 µM): 66.3%. On the same count and under the same terms, the same measure for `O=c1[nH]nc(Sc2ncc([N+](=O)[O-])s2)n1-c1ccc2c(c1)OCCO2` + C[C@]12O[C@H](C[C@]1(O)CO)n1c3ccccc3c3c4c(c5c6ccccc6n2c5c31)CNC4=O [Lestaurtinib] (first compound 0.2 µM, partner dose 0.004 µM): 99%. Turning to `COc1cc([C@@H]2c3cc4c(cc3[C@@H](O[C@@H]3O[C@@H]5CO[C@@H](C)O[C@H]5[C@H](O)[C@H]3O)[C@H]3COC(=O)[C@H]23)OCO4)cc(OC)c1O` [etoposide] + N.N.[Cl][Pt][Cl] [cisplatin] (first compound 0.02 µM, partner dose 1.6 µM), the “cleaved PARP positive nuclei fraction” value is 71.9%. The same measure, in the same setting: to `C[C@]12O[C@H](C[C@]1(O)CO)n1c3ccccc3c3c4c(c5c6ccccc6n2c5c31)CNC4=O` [Lestaurtinib] + C[As](C)SC[C@H](NC(=O)CC[C@H](N)C(=O)O)C(=O)NCC(=O)O [Darinaparsin] (first compound 0.004 µM, partner dose 0.4 µM) belongs 141%. Still for that read-out and setting: to `COc1ccc(COc2ccc(Cc3cnc(N)nc3N)cc2OC)cc1` + O=C(Oc1ccc([N+](=O)[O-])cc1)N1CCC(C(O)(c2ccc3c(c2)OCO3)c2ccc3c(c2)OCO3)CC1 [JZL184] (first compound 1 µM, partner dose 1 µM) belongs 182%; to `Cn1cc(C2=C(c3cn(C4CCN(Cc5ccccn5)CC4)c4ccccc34)C(=O)NC2=O)c2ccccc21` [Enzastaurin] + NC1(c2ccc(-c3nc4ccn5c(=O)[nH]nc5c4cc3-c3ccccc3)cc2)CCC1 [MK2206] (first compound 0.8 µM, partner dose 0.4 µM), 27.3%; to `NC(=O)c1ccc(N(C(N)=O)c2c(F)cccc2F)nc1-c1ccc(F)cc1F` + O=C(Oc1ccc([N+](=O)[O-])cc1)N1CCC(C(O)(c2ccc3c(c2)OCO3)c2ccc3c(c2)OCO3)CC1 [JZL184] (first compound 0.4 µM, partner dose 1 µM), 41%. On the same count and under the same terms, to `C[C@]12O[C@H](C[C@]1(O)CO)n1c3ccccc3c3c4c(c5c6ccccc6n2c5c31)CNC4=O` [Lestaurtinib] + COc1ccc(COc2ccc(Cc3cnc(N)nc3N)cc2OC)cc1 [GW2580] (first compound 0.004 µM, partner dose 1 µM) belongs 111%; to `Cn1cc(C2=C(c3cn(C4CCN(Cc5ccccn5)CC4)c4ccccc34)C(=O)NC2=O)c2ccccc21` [Enzastaurin] + N.N.[Cl][Pt][Cl] [cisplatin] (first compound 0.8 µM, partner dose 1.6 µM), 69%. Take `C[As](C)SC[C@H](NC(=O)CC[C@H](N)C(=O)O)C(=O)NCC(=O)O` [Darinaparsin] + COc1cc(N2CCC(N3CCN(C)CC3)CC2)ccc1Nc1ncc(Cl)c(Nc2ccccc2S(=O)(=O)C(C)C)n1 [NVP-TAE684] (first compound 0.4 µM, partner dose 0.08 µM): the “cleaved PARP positive nuclei fraction” value was found to be 104%. As for `C[C@]12O[C@H](C[C@]1(O)CO)n1c3ccccc3c3c4c(c5c6ccccc6n2c5c31)CNC4=O` [Lestaurtinib] + Cn1nnc2c(C(N)=O)ncn2c1=O [temozolomide] (first compound 0.004 µM, partner dose 2 µM), the “cleaved PARP positive nuclei fraction” value came out at 115%. Same read-out and setting: to `C[As](C)SC[C@H](NC(=O)CC[C@H](N)C(=O)O)C(=O)NCC(=O)O` [Darinaparsin] + COc1ccc(Cl)c(Nc2nc3ccccc3nc2NS(=O)(=O)c2cccc(NC(=O)C(C)(C)N)c2)c1 [XL147] (first compound 0.4 µM, partner dose 0.8 µM) belongs 99.8%; to `COCC[n+]1c2c(n(Cc3cnccn3)c1C)C(=O)c1ccccc1C2=O` + O=C(Oc1ccc([N+](=O)[O-])cc1)N1CCC(C(O)(c2ccc3c(c2)OCO3)c2ccc3c(c2)OCO3)CC1 [JZL184] (first compound 0.0004 µM, partner dose 1 µM), 20.8%.
